Assay results reported in publication doi:10.1101/2025.11.29.691178.
These are yes or no findings as the source states them, for the method shown. For some of these results: Binding seen in cells or lysates may run through a third protein. Some entries that bind do so weakly or less than the wild type.

Amino acid sequences for entries named in this document (tags omitted). A change or cut given only in a name is not applied to a line headed by its entry. Residues count along the entry.
UniProt P02730: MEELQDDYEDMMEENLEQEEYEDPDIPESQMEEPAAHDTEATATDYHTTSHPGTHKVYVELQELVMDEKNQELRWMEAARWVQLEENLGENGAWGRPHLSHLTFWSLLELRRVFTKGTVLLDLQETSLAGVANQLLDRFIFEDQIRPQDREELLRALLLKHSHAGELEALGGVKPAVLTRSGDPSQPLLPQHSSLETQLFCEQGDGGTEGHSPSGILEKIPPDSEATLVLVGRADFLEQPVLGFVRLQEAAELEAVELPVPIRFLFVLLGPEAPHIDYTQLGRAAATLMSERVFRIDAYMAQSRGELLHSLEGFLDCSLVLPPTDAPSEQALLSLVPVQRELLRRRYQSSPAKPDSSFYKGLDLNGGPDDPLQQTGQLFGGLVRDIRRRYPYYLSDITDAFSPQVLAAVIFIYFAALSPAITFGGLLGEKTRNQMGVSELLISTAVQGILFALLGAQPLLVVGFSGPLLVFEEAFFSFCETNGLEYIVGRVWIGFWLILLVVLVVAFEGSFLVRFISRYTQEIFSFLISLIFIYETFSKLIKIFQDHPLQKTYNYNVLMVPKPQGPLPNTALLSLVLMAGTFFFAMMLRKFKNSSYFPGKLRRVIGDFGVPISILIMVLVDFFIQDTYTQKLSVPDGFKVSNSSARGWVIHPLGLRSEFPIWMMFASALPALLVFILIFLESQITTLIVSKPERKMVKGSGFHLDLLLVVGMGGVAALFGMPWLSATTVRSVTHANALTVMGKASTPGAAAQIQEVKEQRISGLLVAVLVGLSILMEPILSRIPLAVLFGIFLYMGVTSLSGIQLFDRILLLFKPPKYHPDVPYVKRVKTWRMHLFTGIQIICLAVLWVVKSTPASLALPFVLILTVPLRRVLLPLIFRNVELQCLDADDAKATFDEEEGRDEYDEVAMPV
Band 3 (SLC4A1) residues 57-379, recombinant: residues 57-379 of P02730
Band 3 (SLC4A1) residues 350-391, recombinant: residues 350-391 of P02730

Legend:
[1] = target: Band 3 (SLC4A1), endogenous in human red blood cells (human (endogenous in RBCs)) (UniProt P02730); assay: proximity ligation
[2] = target: Band 3 (SLC4A1), endogenous in human red blood cells (human (endogenous in RBCs)) (UniProt P02730); assay: cross-linking
[3] = target: Band 3 (SLC4A1) residues 57-379, recombinant (human) (UniProt P02730); assay: cross-linking
[4] = target: Band 3 (SLC4A1) residues 350-391, recombinant (human) (UniProt P02730); assay: cross-linking

binding [1]	binding [2]	binding [3]	binding [4]	Binder
binds	binds	–	–	biliverdin reductase B (BLVRB), endogenous in human red blood cells (enzyme, UniProt P30043 1-206) MAVKKIAIFGATGQTGLTTLAQAVQAGYEVTVLVRDSSRLPSEGPRPAHVVVGDVLQAADVDKTVAGQDAVIVLLGTRNDLSPTTVMSEGARNIVAAMKAHGVDKVVACTSAFLLWDPTKVPPRLQAVTDDHIRMHKVLRESGLKYVAVMPPHIGDQPLTGAYTVTLDGRGPSRVISKHDLGHFMLRCLTTDEYDGHSTYPSHQYQ
–	–	no binding	no binding	human biliverdin reductase B (BLVRB), recombinant, full length (enzyme, UniProt P30043 1-206) MAVKKIAIFGATGQTGLTTLAQAVQAGYEVTVLVRDSSRLPSEGPRPAHVVVGDVLQAADVDKTVAGQDAVIVLLGTRNDLSPTTVMSEGARNIVAAMKAHGVDKVVACTSAFLLWDPTKVPPRLQAVTDDHIRMHKVLRESGLKYVAVMPPHIGDQPLTGAYTVTLDGRGPSRVISKHDLGHFMLRCLTTDEYDGHSTYPSHQYQ
